From paper doi:10.1101/2023.03.22.533821 come the findings set out here.

Results are given in words; binding and its absence hold for the method and conditions named. Binding seen in cells or lysates may run through a third protein. Some results given as binding are weak or reduced against the parent protein; the word gives no strength.

The target in this experiment is T1, phosphorylated activating transcription factor 2 (human (endogenous in H1299)), P15336.
T1 chain: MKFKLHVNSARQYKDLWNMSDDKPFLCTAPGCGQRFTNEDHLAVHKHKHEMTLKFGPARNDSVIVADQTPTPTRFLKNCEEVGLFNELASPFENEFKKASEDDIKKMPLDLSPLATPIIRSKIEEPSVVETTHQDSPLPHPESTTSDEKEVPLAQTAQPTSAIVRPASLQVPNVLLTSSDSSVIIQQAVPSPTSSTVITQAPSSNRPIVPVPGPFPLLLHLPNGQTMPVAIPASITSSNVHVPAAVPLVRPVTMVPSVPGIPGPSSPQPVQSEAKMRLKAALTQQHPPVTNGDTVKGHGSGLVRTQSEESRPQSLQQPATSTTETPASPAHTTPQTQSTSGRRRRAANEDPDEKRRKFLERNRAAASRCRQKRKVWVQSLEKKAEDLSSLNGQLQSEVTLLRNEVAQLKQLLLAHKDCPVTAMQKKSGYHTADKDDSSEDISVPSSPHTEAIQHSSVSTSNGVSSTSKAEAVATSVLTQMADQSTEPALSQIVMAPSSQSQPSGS
As to the kind of experiment: co-IP. To be noted: remark: other sources report otherwise.

B1: phosphorylated c-Jun, P05412 1-331 (protein)
chain: MTAKMETTFYDDALNASFLPSESGPYGYSNPKILKQSMTLNLADPVGSLKPHLRAKNSDLLTSPDVGLLKLASPELERLIIQSSNGHITTTPTPTQFLCPKNVTDEQEGFAEGFVRALAELHSQNTLPSVTSAAQPVNGAGMVAPAVASVAGGSGSGGFSASLHSEPPVYANLSNFNPGALSSGGGAPSYGAAGLAFPAQPQQQQQPPHHLPQQMPVQHPRLQALKEEPQTVPEMPGETPPLSPIDMESQERIKAERKRMRNRIAASKCRKRKLERIARLEEKVKTLKAQNSELASTANMLREQVAQLKQKVMNHVNSGCQLMLTQQLQTF
modifications: here or on the partner: phosphorylated (p-c-Jun); residues not stated; phosphorylated (p-ATF2); residues not stated
As for B1, the binding result was “binds”.
